Assay results: patent US20100297664A1
Results are given in words; binding and its absence hold for the method and conditions named. Binding can be weak; no strength is given.

Molecular target: full-length mortalin with an His tag (recombinant, expressed in Escherichia coli)
Assay: BIACORE, His-tagged mortalin on NTA chip

B1: anti-mortalin monoclonal antibody 52-3 (antibody, V domains shown)
VH: QVQLQQPGAELVKPGASVKLSCKASGYTFTSYWMHWVKQRPGQGLEWIGEINPSNGRTNYNEKFKSKATLTVDKSSSTAYMQLSSLTSEDSAVYYCARSRYYGSCYFDYWGQGTTLTVSS
VL: KIVMTQAAFSNPVTLGTSASISCRSSKSLLYSNGITYLYWYLQKPGQSPQLLIYQMSNLASGVPDRFSSSGSGTDFTLRISRVEAEDVGVYYCAQNLELPWTFGGGTKLEIK
  binding: binds
